Converted amounts (≈) assume the structure as drawn.
What was measured:
Format in all cases: functional
Escherichia coli = assay: Antibacterial activity against Escherichia coli AUMC B-53 by microdilution method
Pseudomonas aeruginosa = assay: Antibacterial activity against Pseudomonas aeruginosa AUMC B-73 by microdilution method
Staphylococcus aureus = assay: Antibacterial activity against Staphylococcus aureus AUMC B-54 by microdilution method

O=C(O)c1cn(C2CC2)c2cc(N3CCNCC3)c(F)cc2c1=O [CIPROFLOXACIN]
MIC (Escherichia coli): 3.9 µg/mL (≈ 11.8 µM)
MIC (Pseudomonas aeruginosa): 6.1 µg/mL (≈ 18.4 µM)
MIC (Staphylococcus aureus): 3.4 µg/mL (≈ 10.3 µM)

Source: ChEMBL document CHEMBL4184204, “Fusarithioamide B, a new benzamide derivative from the endophytic fungus Fusarium chlamydosporium with potent cytotoxic and antimicrobial activities” (Bioorg Med Chem, 2018)
